{"sequences": {"note": "Amino acid sequences for entries named in this document (tags omitted). A change or cut given only in a name is not applied to a line headed by its entry.", "UniProt P0CAW0": "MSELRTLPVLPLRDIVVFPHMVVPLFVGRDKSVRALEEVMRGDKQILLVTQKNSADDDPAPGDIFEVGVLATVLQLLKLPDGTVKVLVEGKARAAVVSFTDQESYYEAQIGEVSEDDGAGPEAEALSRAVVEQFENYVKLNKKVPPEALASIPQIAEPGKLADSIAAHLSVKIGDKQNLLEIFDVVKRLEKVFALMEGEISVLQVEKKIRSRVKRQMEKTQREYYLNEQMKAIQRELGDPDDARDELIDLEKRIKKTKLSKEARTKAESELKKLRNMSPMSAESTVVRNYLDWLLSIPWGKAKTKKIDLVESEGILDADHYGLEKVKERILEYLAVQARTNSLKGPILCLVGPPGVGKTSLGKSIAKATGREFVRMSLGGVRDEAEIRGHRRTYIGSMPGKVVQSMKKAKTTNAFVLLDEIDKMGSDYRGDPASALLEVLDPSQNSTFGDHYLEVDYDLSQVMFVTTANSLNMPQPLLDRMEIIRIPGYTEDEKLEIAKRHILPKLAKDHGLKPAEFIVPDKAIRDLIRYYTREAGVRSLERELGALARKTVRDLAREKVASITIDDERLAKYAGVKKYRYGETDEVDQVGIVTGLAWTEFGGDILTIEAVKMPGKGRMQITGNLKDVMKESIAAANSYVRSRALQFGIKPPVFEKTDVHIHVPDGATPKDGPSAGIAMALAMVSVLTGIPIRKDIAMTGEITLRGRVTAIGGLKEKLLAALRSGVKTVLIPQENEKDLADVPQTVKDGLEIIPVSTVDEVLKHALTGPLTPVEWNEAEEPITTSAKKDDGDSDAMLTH"}, "source": "paper doi:10.1101/317677", "target": "Lon4E (UniProt P0CAW0)", "experiment": "fluorescence polarization", "conditions": "300 nM hexamer, 200 nM DNA, 10 mM MgCl2", "note": "The exact form of at least one protein or probe is not confirmed. A negative result means that nothing was seen under these conditions.", "data": [{"sequence": "AACGGATGATCCACAGGAGAGTCTGGCGCAGGGCGAGAG [FAM-DNA oligo]", "values": [{"measurement": "binding result", "value": "no binding"}]}]}
